Reference: PubChem BioAssay AID1159584 (Peter MacCallum Cancer Centre, 2016)

Assay: 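Genes whose loss is lethal only together with E-cadherin loss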 (primary screen)
System: human MCF10A breast epithelial cells, parental and CDH1-null
Reagent: siRNA against human genes
Measured: 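Cell viability by CellTiter-Glo ATP luminescence, each line scaled to the mean of mock wells across plates, then CDH1-null over parental ratio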
Direction: CDH1-null / parental viability ratio: higher = CDH1-null cells survive relatively better than parental; CDH1-null viability vs mock: higher = more viable CDH1-null cells
Here is a random part of about 18,000 deposited reagents. Not all columns of the deposit are shown. No sequences are given here. Not given: the amount of reagent, the time to read-out.

RACK1 (receptor for activated C kinase 1)
- CDH1-null / parental viability ratio: 0.67
- CDH1-null viability vs mock (fraction of mock): 0.52

FOXP4 (forkhead box P4)
- CDH1-null / parental viability ratio: 1.25
- CDH1-null viability vs mock (fraction of mock): 0.4

TMCO4 (transmembrane and coiled-coil domains 4)
- CDH1-null / parental viability ratio: 1.33
- CDH1-null viability vs mock (fraction of mock): 1.12

SLC2A1
- CDH1-null / parental viability ratio: 0.97
- CDH1-null viability vs mock (fraction of mock): 0.91

FBXO21 (F-box protein 21)
- CDH1-null / parental viability ratio: 0.97
- CDH1-null viability vs mock (fraction of mock): 0.76

MRPL17 (mitochondrial ribosomal protein L17)
- CDH1-null / parental viability ratio: 1.16
- CDH1-null viability vs mock (fraction of mock): 1.08

OR2M2 (olfactory receptor family 2 subfamily M member 2)
- CDH1-null / parental viability ratio: 1.59
- CDH1-null viability vs mock (fraction of mock): 0.92

AMDHD1 (amidohydrolase domain containing 1)
- CDH1-null / parental viability ratio: 1.02
- CDH1-null viability vs mock (fraction of mock): 0.88

NAA38 (N-alpha-acetyltransferase 38, NatC auxiliary subunit)
- CDH1-null / parental viability ratio: 0.96
- CDH1-null viability vs mock (fraction of mock): 0.52

DGKI (diacylglycerol kinase iota)
- CDH1-null / parental viability ratio: 0.99
- CDH1-null viability vs mock (fraction of mock): 0.81

PRR5-ARHGAP8 (PRR5-ARHGAP8 readthrough)
- CDH1-null / parental viability ratio: 0.94
- CDH1-null viability vs mock (fraction of mock): 1.03

EVI5 (ecotropic viral integration site 5)
- CDH1-null / parental viability ratio: 0.85
- CDH1-null viability vs mock (fraction of mock): 0.74

VSIG2 (V-set and immunoglobulin domain containing 2)
- CDH1-null / parental viability ratio: 0.92
- CDH1-null viability vs mock (fraction of mock): 0.77

ARHGEF26 (Rho guanine nucleotide exchange factor 26)
- CDH1-null / parental viability ratio: 1.2
- CDH1-null viability vs mock (fraction of mock): 0.77

IPO13 (importin 13)
- CDH1-null / parental viability ratio: 0.87
- CDH1-null viability vs mock (fraction of mock): 0.69

AP5B1 (adaptor related protein complex 5 subunit beta 1)
- CDH1-null / parental viability ratio: 0.97
- CDH1-null viability vs mock (fraction of mock): 0.84

DCPS (decapping enzyme, scavenger)
- CDH1-null / parental viability ratio: 1.23
- CDH1-null viability vs mock (fraction of mock): 0.92

HJURP (Holliday junction recognition protein)
- CDH1-null / parental viability ratio: 1.06
- CDH1-null viability vs mock (fraction of mock): 0.7

MNS1 (meiosis specific nuclear structural 1)
- CDH1-null / parental viability ratio: 0.97
- CDH1-null viability vs mock (fraction of mock): 0.7

PNPLA5 (patatin like domain 5, triacylglycerol lipase)
- CDH1-null / parental viability ratio: 1.03
- CDH1-null viability vs mock (fraction of mock): 0.6

SLC22A8
- CDH1-null / parental viability ratio: 0.78
- CDH1-null viability vs mock (fraction of mock): 0.72

SLC25A17
- CDH1-null / parental viability ratio: 1.46
- CDH1-null viability vs mock (fraction of mock): 0.6

INO80B (INO80 complex subunit B)
- CDH1-null / parental viability ratio: 0.81
- CDH1-null viability vs mock (fraction of mock): 0.65

PIK3AP1 (phosphoinositide-3-kinase adaptor protein 1)
- CDH1-null / parental viability ratio: 1.01
- CDH1-null viability vs mock (fraction of mock): 0.82

GPR160 (G protein-coupled receptor 160)
- CDH1-null / parental viability ratio: 0.81
- CDH1-null viability vs mock (fraction of mock): 0.76

CXCL9 (C-X-C motif chemokine ligand 9)
- CDH1-null / parental viability ratio: 1.29
- CDH1-null viability vs mock (fraction of mock): 0.49

MC5R (melanocortin 5 receptor)
- CDH1-null / parental viability ratio: 1.32
- CDH1-null viability vs mock (fraction of mock): 0.98

MRPS31 (mitochondrial ribosomal protein S31)
- CDH1-null / parental viability ratio: 1.01
- CDH1-null viability vs mock (fraction of mock): 0.98

SH3PXD2B (SH3 and PX domains 2B)
- CDH1-null / parental viability ratio: 0.91
- CDH1-null viability vs mock (fraction of mock): 0.74

CCDC13 (coiled-coil domain containing 13)
- CDH1-null / parental viability ratio: 0.68
- CDH1-null viability vs mock (fraction of mock): 0.89

SLC1A2
- CDH1-null / parental viability ratio: 0.96
- CDH1-null viability vs mock (fraction of mock): 1.03

CDK5RAP2 (CDK5 regulatory subunit associated protein 2)
- CDH1-null / parental viability ratio: 0.74
- CDH1-null viability vs mock (fraction of mock): 0.56

ATG4B (autophagy related 4B cysteine peptidase)
- CDH1-null / parental viability ratio: 1.1
- CDH1-null viability vs mock (fraction of mock): 0.8

TMPRSS11A (transmembrane serine protease 11A)
- CDH1-null / parental viability ratio: 1
- CDH1-null viability vs mock (fraction of mock): 0.78

CT47A11 (cancer/testis antigen family 47 member A11)
- CDH1-null / parental viability ratio: 0.91
- CDH1-null viability vs mock (fraction of mock): 1

Reformatted: 2 of the entries above.
MC5R (melanocortin 5 receptor) | CDH1-null / parental viability ratio = 1.32; CDH1-null viability vs mock (fraction of mock) = 0.98
MRPS31 (mitochondrial ribosomal protein S31) | CDH1-null / parental viability ratio = 1.01; CDH1-null viability vs mock (fraction of mock) = 0.98
